According to PMC6572618, “Anti-Trypanosomal and Antimalarial Properties of Tetralone Derivatives and Structurally Related Benzocycloalkanones” (Medicina, 2019):

What was measured:
Type in all cases: cell-based
HeLa cells = test: In vitro cytotoxicity assay (resazurin); conditions: 20 µM compound, 24 h, % cell viability relative to untreated control
Protocol: As previously described, HeLa cells (Cellonex, Johannesburg, South Africa) were seeded in 96-well plates at a density of 2 × 10^4 cells/well in Dulbecco’s modified Eagle’s medium (DMEM) (Lonza, Basel, Switzerland) supplemented with 10% fetal calf serum and antibiotics (penicillin/streptomycin/amphotericin B) and incubated overnight at 37 °C in a 5% CO2 incubator. Compounds were added to the cells at a final concentration of 20 µM, and incubation continued for 24 h. The cell viability in the wells was assessed by adding 20 µL of resazurin reagent (0.135 mg/mL resazurin in phosphate-buffered saline) and reading the fluorescence (Ex560/Em590) after an additional 2–4 h incubation. The fluorescence readings were converted to % cell viability relative to the average readings obtained from the untreated control wells.
(§1) Thirty-five tetralone derivatives (see Figure 2) and six related benzocycloalkanones (see Figure 3) were evaluated in vitro against T. b. brucei for antitrypanosomal activity through the resazurin assay protocol. The compounds were also evaluated against the chloroquine-sensitive strain (3D7) of P. falciparum for antimalarial activity using pLDH assay and against the HeLa cell line for cytotoxicity evaluation using the resazurin assay protocol. […]

[1] = system: 427 Trypanosoma brucei brucei trypomastigotes; test: In vitro anti-trypanosomal assay (resazurin); conditions: 20 µM compound, 48 h, % parasite viability relative to untreated control
Protocol: The activity of the compounds against 427 Trypanosoma brucei brucei trypomastigotes was determined as previously described. Briefly, parasites were incubated in 96-well plates with 20 µM or three-fold serial dilutions (100 µM starting concentration) of test compounds in Iscove’s modified Dulbecco’s medium (IMDM) (Lonza, Basel, Switzerland) supplemented with 10% fetal calf serum, HMI-9 supplement, hypoxanthine, and penicillin/streptomycin at 37 °C in a 5% CO2 incubator. After 48 h, 20 µL of resazurin reagent (0.135 mg/mL resazurin in phosphate-buffered saline) was added to each well and the fluorescence (Ex560/Em590) read after 2–4 h in a Spectramax M3 plate reader (Molecular Devices, San Jose, CA, USA). The fluorescence readings were used to calculate % parasite viability relative to the readings obtained from the wells containing untreated control parasite cultures. The IC50 values were determined by plotting % viability vs. log(compound) and performing a non-linear regression using a GraphPad Prism (v. 5.02) (San Diego, CA, USA).
Thirty-five tetralone derivatives (see Figure 2) and six related benzocycloalkanones (see Figure 3) were evaluated in vitro against T. b. brucei for antitrypanosomal activity through the resazurin assay protocol. […]

[2] = system: chloroquine sensitive strain of P. falciparum (3D7); test: In vitro antiplasmodial assay (parasite lactate dehydrogenase, pLDH)
Protocol: An antimalarial evaluation was performed against the chloroquine sensitive strain of P. falciparum (3D7) using the parasite lactate dehydrogenase (pLDH) assay as previously reported. Parasites were seeded at 2% parasitemia and 1% hematocrit in 96 well plates and were incubated with 20 µM of the test compounds for 48 h in culture medium consisting of Rosell Park Memorial Institute (RPMI 1640; Lonza, Basel, Switzerland) containing 25 mM 4-(2-hydroxyethyl)-1-piperazineethanesulfonic acid (HEPES), supplemented with 0.5% (w/v) Albumax II, 22 mM glucose, 0.65 mM hypoxanthine, 0.05mg/mL gentamicin, and 1% (v/v) human erythrocytes, at 37 °C under an atmosphere of 5% CO2, 5% O2, and 90% N2. The parasite lactate dehydrogenase activity in the wells was determined using the colorimetric assay method of Makler et al.. The absorbance readings were converted to % parasite viability relative to the wells containing untreated parasites.
as §1

COc1ccc2c(c1)C(=O)/C(=C/c1ccncc1)CC2 [Compound 32]
% Viability at 20 µM (SD) HeLa Cell (HeLa cells): 23 (2) %
% Viability at 20 µM (SD) T.b. brucei [1]: −0.1 (0.7) %
% Viability at 20 µM (SD) 3D7 [2]: 36 (12) %
